{"source": "the supplement of paper PMC8256030", "key": {"[1]": {"tested_on": "SARS-CoV-2 -1 PRF reporter mCherry-FSE-GFP(-1)", "test": "mCherry (red) intensity as percent of control; higher = higher upstream reporter expression", "conditions": "10 µM; 24 h; HEK293T"}, "[2]": {"tested_on": "SARS-CoV-2 -1 PRF reporter mCherry-FSE-GFP(-1)", "test": "percent effect, decrease of GFP/mCherry ratio (-1 PRF reporter) relative to controls; higher = stronger frameshift inhibition", "conditions": "10 µM; 24 h; HEK293T"}}, "note": "Where “and” joins values, the source holds several entries; their conditions need not be identical. Equal values may be shown once. The list shows a part of the results. Single values are uncertain here, since repeats match poorly.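 HEK293T cells were given each compound shortly before transfection with a reporter in which red mCherry is followed by the SARS-CoV-2 frameshift element and then GFP in the −1 frame, so GFP appears only after frameshifting.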"}
{"smiles": "O=C(O)C1=C(CSc2nnnn2CS(=O)(=O)O)CS[C@@H]2[C@H](NC(=O)[C@H](O)c3ccccc3)C(=O)N12", "note": "[Monocid]", "values": [{"measurement": "mCherry", "setting": "[1]", "result": 114, "unit": "%"}, {"measurement": "percent effect", "setting": "[2]", "result": -2.13, "unit": "%"}]}
{"smiles": "COc1ccccc1OCC(O)CN1CCN(CC(=O)Nc2c(C)cccc2C)CC1", "note": "(stereo not given) [ranolazine]", "values": [{"measurement": "mCherry", "setting": "[1]", "result": "76.3% and 78.4%"}, {"measurement": "percent effect", "setting": "[2]", "result": "-1.91% and 5.04%"}]}
{"smiles": "CC(C)(C)c1cc(C(C)(C)C)c(NC(=O)c2c[nH]c3ccccc3c2=O)cc1O", "note": "[Kalydeco]", "values": [{"measurement": "mCherry", "setting": "[1]", "result": 102, "unit": "%"}, {"measurement": "percent effect", "setting": "[2]", "result": 0.513, "unit": "%"}]}
{"smiles": "CC1(C)S[C@@H]2[C@H](NC(=O)C(C(=O)O)c3ccccc3)C(=O)N2[C@H]1C(=O)O", "note": "(stereo not given in full)", "values": [{"measurement": "mCherry", "setting": "[1]", "result": 95.9, "unit": "%"}, {"measurement": "percent effect", "setting": "[2]", "result": 1.18, "unit": "%"}]}
{"smiles": "C/C(=C\\c1csc(C)n1)[C@@H]1C[C@@H]2O[C@]2(C)CCC[C@H](C)[C@H](O)[C@@H](C)C(=O)C(C)(C)[C@@H](O)CC(=O)N1", "note": "[ixabepilone]", "values": [{"measurement": "mCherry", "setting": "[1]", "result": 100, "unit": "%"}, {"measurement": "percent effect", "setting": "[2]", "result": -12.2, "unit": "%"}]}
{"smiles": "CCCC(CCC)C(=O)NCC(N)=O", "note": "[valrocemide]", "values": [{"measurement": "mCherry", "setting": "[1]", "result": 105, "unit": "%"}, {"measurement": "percent effect", "setting": "[2]", "result": -4.84, "unit": "%"}]}
{"smiles": "CO[C@H]1C(=O)[C@]2(C)[C@@H](OC)C[C@H]3OC[C@@]3(OC(C)=O)[C@H]2[C@H](OC(=O)c2ccccc2)[C@]2(O)C[C@H](OC(=O)[C@H](O)[C@@H](NC(=O)OC(C)(C)C)c3ccccc3)C(C)=C1C2(C)C", "note": "[Jevtana]", "values": [{"measurement": "mCherry", "setting": "[1]", "result": 76.1, "unit": "%"}, {"measurement": "percent effect", "setting": "[2]", "result": -16.1, "unit": "%"}]}
{"smiles": "Cc1onc(NS(=O)(=O)c2ccccc2-c2ccc(-c3ncco3)cc2CN(C)C(=O)CC(C)(C)C)c1C", "note": "[edonentan]", "values": [{"measurement": "mCherry", "setting": "[1]", "result": 80.8, "unit": "%"}, {"measurement": "percent effect", "setting": "[2]", "result": -4.07, "unit": "%"}]}
{"smiles": "CN(C(=O)CN(CCO)CC(=O)N(C)C(C)(C)Cc1ccccc1)C(C)(C)Cc1ccccc1", "note": "[oxetacaine]", "values": [{"measurement": "mCherry", "setting": "[1]", "result": 88.8, "unit": "%"}, {"measurement": "percent effect", "setting": "[2]", "result": -2.38, "unit": "%"}]}
{"smiles": "O=C(O)Cc1ccccc1Oc1ccc(Cl)cc1Cl", "note": "[fenclofenac]", "values": [{"measurement": "mCherry", "setting": "[1]", "result": 52.1, "unit": "%"}, {"measurement": "percent effect", "setting": "[2]", "result": -1.44, "unit": "%"}]}
{"smiles": "O=c1cc[nH]c(=O)[nH]1", "values": [{"measurement": "mCherry", "setting": "[1]", "result": 82.3, "unit": "%"}, {"measurement": "percent effect", "setting": "[2]", "result": -1.38, "unit": "%"}]}
{"smiles": "CCCCC(CC)CN=C(N)NC(N)=NCCCCCCN=C(N)NC(N)=NCC(CC)CCCC", "note": "(stereo not given)", "values": [{"measurement": "mCherry", "setting": "[1]", "result": 110, "unit": "%"}, {"measurement": "percent effect", "setting": "[2]", "result": -5.21, "unit": "%"}]}
{"smiles": "CO/N=C(\\C(=O)N[C@@H]1C(=O)N2C(C(=O)O)=CCS[C@H]12)c1csc(N)n1", "note": "[Cefizox]", "values": [{"measurement": "mCherry", "setting": "[1]", "result": 116, "unit": "%"}, {"measurement": "percent effect", "setting": "[2]", "result": -2.01, "unit": "%"}]}
{"smiles": "C[C@@H](O)[C@H]1C(=O)N2C(C(=O)O)=C(S[C@@H]3CN[C@H](C(=O)N(C)C)C3)[C@H](C)[C@H]12", "note": "[meropenem]", "values": [{"measurement": "mCherry", "setting": "[1]", "result": 87, "unit": "%"}, {"measurement": "percent effect", "setting": "[2]", "result": 0.333, "unit": "%"}]}
{"smiles": "CC1(C)S[C@@H]2[C@H](NC(=O)[C@H](N)c3ccccc3)C(=O)N2[C@H]1C(=O)O", "values": [{"measurement": "mCherry", "setting": "[1]", "result": 85.6, "unit": "%"}, {"measurement": "percent effect", "setting": "[2]", "result": 0.634, "unit": "%"}]}
{"smiles": "CCCCC[C@H](O)CC[C@@H]1[C@H]2Cc3cccc(OCC(=O)O)c3C[C@H]2C[C@H]1O", "note": "[treprostinil]", "values": [{"measurement": "mCherry", "setting": "[1]", "result": 106, "unit": "%"}, {"measurement": "percent effect", "setting": "[2]", "result": -2.14, "unit": "%"}]}
{"smiles": "COC(F)(F)C(Cl)Cl", "note": "[methoxyflurane]", "values": [{"measurement": "mCherry", "setting": "[1]", "result": 108, "unit": "%"}, {"measurement": "percent effect", "setting": "[2]", "result": 0.00952, "unit": "%"}]}
{"smiles": "CCCc1c(OCCCOc2cc(O)c(-c3ccc(F)cc3)cc2CC)cccc1Oc1ccccc1C(=O)O", "note": "[etalocib]", "values": [{"measurement": "mCherry", "setting": "[1]", "result": 81.1, "unit": "%"}, {"measurement": "percent effect", "setting": "[2]", "result": -3.79, "unit": "%"}]}
{"smiles": "CCC(C)(Oc1ccc(C2(c3ccc(OC(C)(CC)C(=O)O)cc3)CCCCC2)cc1)C(=O)O", "note": "(stereo not given) [clinofibrate]", "values": [{"measurement": "mCherry", "setting": "[1]", "result": 78.7, "unit": "%"}, {"measurement": "percent effect", "setting": "[2]", "result": 0.137, "unit": "%"}]}
{"smiles": "COc1ccc2cc3[n+](cc2c1OC)CCc1cc2c(cc1-3)OCO2", "values": [{"measurement": "mCherry", "setting": "[1]", "result": 99, "unit": "%"}, {"measurement": "percent effect", "setting": "[2]", "result": 0.803, "unit": "%"}]}
